# Values from PubChem BioAssay AID1224827 (NIAID, 2016).
# Aim: 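Confirm genes whose knock-down changes LPS-driven TNF promoter activity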 (follow-up of hits)
# System: RAW264.7 G9 mouse macrophage reporter clone
# Reagents: single siRNA against mouse genes, 100 nM siRNA
# Duration: siRNA for 2 days, then LPS about 16 h
# Treatment: bacterial lipopolysaccharide (LPS), 10 ng/ml, cells fixed after overnight (about 16 h) stimulation
# Detection: 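Imaged nuclear TNF reporter intensity, background removed, scaled per plate and to non-targeting control wells, as z-scores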
# Direction: TNF reporter z-score, mean and TNF reporter z-score: higher = stronger Tnf promoter reporter signal; gene median z, three same-vendor siRNAs: higher = stronger Tnf reporter signal for the gene
# Rule for the call: 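An siRNA is called active when its mean z-score over replicates is at least +2 or at most -2; control wells get no call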
# In all, the deposit lists about 3,800 reagents; this is a part drawn at random. Of all reagents, about 2,200 (57%) were called active. 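Active means a strong reporter change in either direction; calls are per siRNA, not per gene; qiagen siRNAs gave weaker effects.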 Unmarked entries are inactive. Not all columns of the deposit are shown.
gene,PubChem SID,"TNF reporter z-score, mean","gene median z, three same-vendor siRNAs","TNF reporter z-score, repeat 1"
Gtf2f1,SID315487383,5.21 (active),1.45,6.75
Gtf2f1,SID315487384,1.45,1.45,0.0244
Gtf2f1,SID315487385,-3.09 (active),1.45,-3.2
Gtf2f1,SID315487386,0.974,0.093,1.93
Gtf2f1,SID315487387,0.52,0.093,1.97
Gtf2f1,SID315487388,-0.554,0.093,0.165
Gabra5,SID315487563,9.09 (active),-2.11,5.55
Gabra5,SID315487564,-2.35 (active),-2.11,-3.06
Gabra5,SID315487565,-2.93 (active),-2.11,-2.57
Gabra5,SID315487566,1.66,-0.228,3.57
Gabra5,SID315487567,0.686,-0.228,1.67
Gabra5,SID315487568,-0.966,-0.228,-0.198
Exosc1,SID315486384,0.855,-3.97,2.7
Exosc1,SID315486385,-4.15 (active),-3.97,-4.52
Exosc1,SID315486386,-4.9 (active),-3.97,-4.16
Exosc1,SID315486387,0.331,-1.36,1.61
Exosc1,SID315486388,0.138,-1.36,2.56
Exosc1,SID315486389,-1.95,-1.36,-1.76
Vamp1,SID315485088,-0.806,-4.16,-0.943
Vamp1,SID315485089,-4.16 (active),-4.16,-4.2
Vamp1,SID315485090,-5.08 (active),-4.16,-5.2
Vamp1,SID315485091,1.45,0.247,2.49
Vamp1,SID315485092,-0.329,0.247,-0.748
Vamp1,SID315485093,-0.0644,0.247,0.831
Or5w20,SID315488679,-3.21 (active),-3.91,-4.52
Or5w20,SID315488680,-3.75 (active),-3.91,-4.24
Or5w20,SID315488681,-3.91 (active),-3.91,-3.95
Or5w20,SID315488682,2.4 (active),-1.42,4.96
Or5w20,SID315488683,-1.42,-1.42,-1.44
Or5w20,SID315488684,-2.65 (active),-1.42,-3.49
Dlx6,SID315484044,4.94 (active),0.604,8.99
Dlx6,SID315484045,3.87 (active),0.604,7.4
Dlx6,SID315484046,-2.35 (active),0.604,-2.93
5330416C01Rik,SID315489249,-0.223,-2.18,-0.127
5330416C01Rik,SID315489250,-2.71 (active),-2.18,-2.16
5330416C01Rik,SID315489251,-2.8 (active),-2.18,-3.4
5330416C01Rik,SID315489252,4.88 (active),1.87,7.46
5330416C01Rik,SID315489253,2.53 (active),1.87,3.62
5330416C01Rik,SID315489254,-0.00565,1.87,1.36
4933431E20Rik,SID315488976,0.541,-1.69,1.63
4933431E20Rik,SID315488977,-1.34,-1.69,0.155
4933431E20Rik,SID315488978,-4.91 (active),-1.69,-4.72
Rpl5,SID315484806,-2.2 (active),-4.49,-1.99
Rpl5,SID315484807,-4.49 (active),-4.49,-4.36
Rpl5,SID315484808,-5.1 (active),-4.49,-5.33
Rpl5,SID315484809,-2.03 (active),-3.05,-1.36
Rpl5,SID315484810,-2.62 (active),-3.05,-1.82
Rpl5,SID315484811,-3.46 (active),-3.05,-3.4
Pdk3,SID315488451,5.87 (active),-1.97,5
Pdk3,SID315488452,-1.97,-1.97,-1.17
Pdk3,SID315488453,-3.36 (active),-1.97,-3.48
Pdk3,SID315488454,1.28,-0.0193,3.02
Pdk3,SID315488455,-0.382,-0.0193,0.417
Pdk3,SID315488456,-0.527,-0.0193,0.532
Gpr26,SID315488391,-1.42,-4.04,-1.37
Gpr26,SID315488392,-4.04 (active),-4.04,-3.48
Gpr26,SID315488393,-4.66 (active),-4.04,-4.71
Gpr26,SID315488394,-0.173,-1.95,1.38
Gpr26,SID315488395,-0.114,-1.95,1.95
Gpr26,SID315488396,-3.41 (active),-1.95,-4.14

Already shown: an excerpt of the list.
gene,PubChem SID,"TNF reporter z-score, mean","gene median z, three same-vendor siRNAs","TNF reporter z-score, repeat 1"
Gtf2f1,SID315487388,-0.554,0.093,0.165
Gabra5,SID315487563,9.09 (active),-2.11,5.55
Gabra5,SID315487564,-2.35 (active),-2.11,-3.06
